Holding throughout (test): co-IP
The target of one assay is T1, PPM1G-Flag (UniProt O15355).
T1 sequence: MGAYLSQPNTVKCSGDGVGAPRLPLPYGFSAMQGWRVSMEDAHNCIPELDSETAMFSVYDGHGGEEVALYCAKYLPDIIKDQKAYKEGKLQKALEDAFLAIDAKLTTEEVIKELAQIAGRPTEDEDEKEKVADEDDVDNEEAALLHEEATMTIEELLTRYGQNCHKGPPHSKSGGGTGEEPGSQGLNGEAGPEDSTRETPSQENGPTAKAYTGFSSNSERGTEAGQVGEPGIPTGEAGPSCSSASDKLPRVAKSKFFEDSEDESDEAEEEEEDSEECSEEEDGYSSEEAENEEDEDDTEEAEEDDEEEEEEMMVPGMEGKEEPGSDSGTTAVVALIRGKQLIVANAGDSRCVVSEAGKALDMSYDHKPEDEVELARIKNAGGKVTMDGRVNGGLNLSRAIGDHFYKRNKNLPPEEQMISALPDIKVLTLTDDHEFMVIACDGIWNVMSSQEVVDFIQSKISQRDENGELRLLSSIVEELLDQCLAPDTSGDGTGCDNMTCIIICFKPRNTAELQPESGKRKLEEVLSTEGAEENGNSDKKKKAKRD

The target of another assay is T2, PPM1G-Δ258-322-Flag (UniProt O15355).
T2 sequence: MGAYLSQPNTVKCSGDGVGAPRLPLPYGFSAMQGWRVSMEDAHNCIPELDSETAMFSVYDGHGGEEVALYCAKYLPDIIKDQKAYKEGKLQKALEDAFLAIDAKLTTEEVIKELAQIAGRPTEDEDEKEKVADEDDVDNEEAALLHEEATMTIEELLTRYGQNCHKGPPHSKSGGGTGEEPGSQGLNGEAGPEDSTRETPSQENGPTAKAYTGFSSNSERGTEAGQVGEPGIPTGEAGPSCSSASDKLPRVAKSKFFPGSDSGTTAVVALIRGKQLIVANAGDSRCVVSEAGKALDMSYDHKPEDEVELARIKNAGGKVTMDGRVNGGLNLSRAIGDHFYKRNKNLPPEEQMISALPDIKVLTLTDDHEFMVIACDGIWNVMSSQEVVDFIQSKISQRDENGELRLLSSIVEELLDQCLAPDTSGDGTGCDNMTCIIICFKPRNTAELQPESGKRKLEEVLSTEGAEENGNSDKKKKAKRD

A further assay addresses T3, PPM1K-Flag (UniProt Q8N3J5).
T3 sequence: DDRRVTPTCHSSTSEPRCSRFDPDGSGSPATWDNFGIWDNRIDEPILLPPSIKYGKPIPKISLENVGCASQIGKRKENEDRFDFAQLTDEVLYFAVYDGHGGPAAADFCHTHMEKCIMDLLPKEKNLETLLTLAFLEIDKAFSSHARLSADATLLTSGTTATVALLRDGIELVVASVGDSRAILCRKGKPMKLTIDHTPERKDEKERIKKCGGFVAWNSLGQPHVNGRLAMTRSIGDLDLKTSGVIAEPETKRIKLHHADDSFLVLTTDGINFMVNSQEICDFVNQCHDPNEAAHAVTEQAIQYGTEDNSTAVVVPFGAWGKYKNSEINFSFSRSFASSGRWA

A further assay concerns the target T4, ATG7-Flag (UniProt O95352).
T4 sequence: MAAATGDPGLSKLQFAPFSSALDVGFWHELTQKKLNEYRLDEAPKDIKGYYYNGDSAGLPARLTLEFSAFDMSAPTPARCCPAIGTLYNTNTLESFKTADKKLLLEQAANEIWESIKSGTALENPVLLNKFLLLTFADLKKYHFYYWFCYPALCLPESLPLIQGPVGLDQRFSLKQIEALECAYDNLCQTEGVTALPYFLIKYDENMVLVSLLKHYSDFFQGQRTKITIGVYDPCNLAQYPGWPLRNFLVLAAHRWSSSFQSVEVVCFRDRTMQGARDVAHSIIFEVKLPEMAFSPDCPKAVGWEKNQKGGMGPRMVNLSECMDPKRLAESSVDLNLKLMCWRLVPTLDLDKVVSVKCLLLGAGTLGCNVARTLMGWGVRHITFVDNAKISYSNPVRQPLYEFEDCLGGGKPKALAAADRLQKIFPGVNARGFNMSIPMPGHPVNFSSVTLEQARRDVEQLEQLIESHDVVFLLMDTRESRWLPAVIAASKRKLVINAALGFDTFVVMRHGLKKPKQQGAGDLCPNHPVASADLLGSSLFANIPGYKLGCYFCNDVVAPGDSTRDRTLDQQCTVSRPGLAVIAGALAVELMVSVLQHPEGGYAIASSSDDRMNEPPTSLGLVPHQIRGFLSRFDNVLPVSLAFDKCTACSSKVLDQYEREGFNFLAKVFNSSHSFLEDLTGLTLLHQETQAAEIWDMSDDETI

5 substances from article doi:10.1101/2025.09.18.676991 can be followed below.

These are yes or no findings as the source states them, for the method shown. In cells and extracts the contact can be indirect. For some of these results: A result given as binding can be weak or reduced; the word gives no strength. Sequences can lack the tags named with a protein.

Take “IBV/Yamagata PB1-HA (influenza B virus (IBV/Yamagata))”: the binding entry with PPM1G-Flag was “binds”.
“IBV/Yamagata PB1-His (influenza B virus (IBV/Yamagata))”: the binding entry with PPM1G-Flag was “binds”; in the assay with PPM1G-Δ258-322-Flag it was “no binding”.
For the substance “IBV/Yamagata PB2-HA (influenza B virus (IBV/Yamagata))”, the binding entry with PPM1G-Flag is “binds”.
In the case of “IBV/Yamagata PB2-His (influenza B virus (IBV/Yamagata))”, the binding entry was “binds” with PPM1G-Flag and “no binding” in the assay with PPM1G-Δ258-322-Flag.
Turning to “IBV/Yamagata-NP-His (influenza B virus (IBV/Yamagata))”, the binding result with PPM1K-Flag is recorded as “no binding”; with PPM1G-Flag it was “binds”; in the assay with ATG7-Flag, “binds”; in the assay with PPM1G-Δ258-322-Flag, “no binding”.
